Reference: PubChem BioAssay AID2685 (National Center for Advancing Translational Sciences (NCATS), 2010)
The other results are listed elsewhere or left out. The main result of the screen is listed elsewhere. These columns were measured beside it and carry no call. Most of these compounds were active or inconclusive in the main read-out, so they are no random draw. Potencies come from curve fits of mixed quality, noted in brackets.

Assay: qHTS Assay for Lipid Storage Modulators in Drosophila S3 Cells;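 for cell number change: cells counted by Cell Tracker Red CMTPX staining in the red channel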
Conditions: BODIPY lipid droplet fluorescence, 18-24 h; for cell number change: measured here: cell count max response, cells fed with added oleic acid
Summary of the method: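 Drosophila S3 cells got compounds at several concentrations plus oleic acid (400 uM solution). Laser-scanning cytometry with 488 nm excitation read lipid droplets at 500-530 nm and cells at 575-640 nm. Percent activity was relative to 20 uM Triacsin C.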

[1] = measured here: lipid fluorescence (Fed channel) AC50, cells fed with added oleic acid
[2] = measured here: cell number channel AC50, cells fed with added oleic acid

CCOC(=O)N1CCC(NC(=O)c2cccc3c2C(=O)N(CCOC)C3)CC1
cell number change: 12.6% | AC50 [1]: 1640 nM [falling, partial curve]

Cn1cc(Br)c(C(=O)N2CCCCCC2)n1
cell number change: -12.2% | AC50 [1]: 920 nM [falling, full curve, poor fit]

COC(=O)c1ccc(C(=O)OC)c(NC(=O)COC(=O)CC2CC3CCC2C3)c1 (configuration not stated)
AC50 [2]: 1840 nM [rising, partial curve] | AC50 [1]: 3260 nM [rising, partial curve]

O=S(=O)(c1ccc(-c2nnc(SCc3ccccc3)o2)cc1)N1CCCC1
cell number change: 52.3% | AC50 [2]: 9200 nM [rising, partial curve] | AC50 [1]: 2060 nM [rising, single point]

O=C1C=C(NCc2ccc(Cl)cc2Cl)C2(CCCCC2)O1
cell number change: -31.5% | AC50 [2]: 7310 nM [falling, partial curve] | AC50 [1]: 16400 nM [falling, partial curve]

Cc1ccc(C)n1NC(=O)c1ccc([N+](=O)[O-])cc1
cell number change: -64.6% | AC50 [2]: 10000 nM [falling, partial curve, poor fit] | AC50 [1]: 3550 nM [falling, partial curve, poor fit]

CCCCNC(=O)c1ccc(Cn2c(=S)[nH]c3c([nH]c4ccc(OC)cc43)c2=O)cc1
cell number change: -47.9% | AC50 [2]: 2910 nM [falling, full curve] | AC50 [1]: 5170 nM [falling, full curve]

C=CCSc1nnc(NC(=O)CSc2nc3ccccc3[nH]2)s1
cell number change: -12.3%

COc1ccc(C(=O)COC(=O)CCn2nnc(-c3cccs3)n2)cc1
cell number change: -8.89% | AC50 [2]: 6.51 nM [falling, full curve] | AC50 [1]: 1300 nM [falling, full curve]

C/C(=N\NS(=O)(=O)c1cccc([N+](=O)[O-])c1)c1cc2ccccc2o1
AC50 [1]: 29100 nM [rising, single point]

Fc1ccc(/C=N/NC(=S)Nc2cccnc2)cc1F
cell number change: -19.9% | AC50 [1]: 461 nM [falling, partial curve, poor fit]

CCOc1ccc(-c2cc(C(=O)NCC3CCCO3)c3ccccc3n2)cc1 (configuration not stated)
cell number change: 40.8% | AC50 [2]: 6510 nM [rising, partial curve]

COc1ccc(C(=O)NCC2CCCN2S(=O)(=O)c2cccs2)cc1OC (configuration not stated)
cell number change: 1.2%

CC(NC(N)=O)C(=O)NCC(=O)OCc1ccccc1 (configuration not stated)
cell number change: -30.4%

CCCNC(=O)c1ccc2c(c1)ncn2-c1ccccc1OC
AC50 [2]: 58 nM [rising, full curve, poor fit]

COC(=O)c1sc(N)c(C(=O)OC)c1COC(=O)CNS(=O)(=O)c1ccc(C)c(C)c1
cell number change: 8.2%

C=CCn1c(SCC(=O)Nc2nncs2)nnc1-c1ccco1
cell number change: 5.71%

COc1ccc(C2C(C#N)=C(N)Oc3n[nH]c(C)c32)cc1Cn1nnc2ccccc21 (configuration not stated)
cell number change: -19.8% | AC50 [1]: 920 nM [rising, full curve]

CCc1nc2ccccc2c(C(=O)OCC(=O)Nc2ccc(S(=O)(=O)N3CCOCC3)cc2)c1C
cell number change: -18.1%

O=C(Nc1ccccc1)c1ccc2nsnc2c1
cell number change: 24.1% | AC50 [2]: 1840 nM [rising, full curve, poor fit]

CCCn1c(=O)c2[nH]c(C3CCCC3)nc2n(CCC)c1=O
cell number change: 29.7% | AC50 [2]: 4110 nM [rising, full curve, poor fit] | AC50 [1]: 1640 nM [rising, full curve]

Cn1cnc2cc(NCc3ccccc3Cl)ccc21
cell number change: -7.09%

Oc1ccc2ccccc2c1CN1CCN(c2ccccc2)CC1
cell number change: 0.899% | AC50 [1]: 130 nM [rising, full curve, poor fit]

COCCOC(=O)c1c(NC(=O)CN2c3ccccc3CC2C)sc(C(N)=O)c1C (configuration not stated)
cell number change: 89.9% | AC50 [2]: 16400 nM [rising, partial curve] | AC50 [1]: 1460 nM [rising, single point]

COc1ccc(CCNC(=O)CCN2C(=O)COc3ccccc32)cc1OC
AC50 [1]: 291 nM [rising, partial curve, poor fit]

COc1ccnc(Nc2cccc(C)c2)c1C#N
cell number change: -72% | AC50 [2]: 23100 nM [falling, single point] | AC50 [1]: 2060 nM [falling, partial curve]

CC(C)[C@H](NC(=O)c1nn(Cc2ccccc2)c(=O)c2ccccc12)C(=O)O
AC50 [1]: 6510 nM [rising, partial curve, poor fit]

CC(O)(C#CCN1CCOCC1)c1ccccc1 (configuration not stated)
cell number change: -26.5% | AC50 [2]: 73.1 nM [falling, full curve, poor fit] | AC50 [1]: 130 nM [falling, full curve, poor fit]

CN(C(=O)COC(=O)COc1ccccc1Cc1ccccc1)c1ccccc1
cell number change: -33.3%

COc1ccc2nc(NC(=O)C3CCN(S(=O)(=O)c4cccnc4)CC3)sc2c1
cell number change: 50% | AC50 [2]: 366 nM [rising, full curve] | AC50 [1]: 366 nM [rising, full curve, poor fit]

COc1ccc(C(=O)/C(C#N)=N/Nc2cccc([N+](=O)[O-])c2)cc1
cell number change: -54% | AC50 [2]: 16400 nM [falling, single point] | AC50 [1]: 580 nM [falling, full curve, poor fit]

CC(CNC(=O)CCn1c(=O)c2cccn2c2ccc(F)cc21)c1ccccc1 (configuration not stated)
cell number change: -1.98% | AC50 [2]: 2910 nM [falling, partial curve, poor fit] | AC50 [1]: 8200 nM [falling, partial curve]

Cc1ccc2c(c1)N(CC(=O)NC1CCCC1)C(=O)C(C)O2 (configuration not stated)
cell number change: 47.4% | AC50 [2]: 18400 nM [rising, single point] | AC50 [1]: 4110 nM [rising, partial curve, poor fit]

O=[N+]([O-])c1cccnc1N1CCC(c2cc(-c3ccc(Cl)cc3Cl)n[nH]2)CC1
cell number change: -4.03%

COc1cc(/C=N/NC2=NC(C)(C)Cc3ccccc32)cc(OC)c1OC
cell number change: -13.1%

COc1cc(OC)cc(C(=O)NC2CC(C)(C)NC(C)(C)C2)c1
cell number change: 2.62%

COc1ccc(C(=O)c2ccc(N(C)C)cc2)c(OC)c1
cell number change: 23.9%

Cc1cc(OC(C)C(=O)NCC(O)c2ccccc2)c2c(C)c(C)c(=O)oc2c1 (configuration not stated)
AC50 [2]: 1640 nM [falling, partial curve]
